Reference: PubChem BioAssay AID743454 (Peter MacCallum Cancer Centre, 2014)
Shown is one part, drawn at random, of about 18,000 reagents. Of all reagents, 450 (2.5%) got an active call. 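Single biological run; no consistent viability z cut-off exists, so the class columns, not z-scores, define the calls.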 Unmarked entries are inactive.

Test: 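Knock-downs lowering viability or raising caspase 3/7 activity in vorinostat-treated resistant cells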 (primary screen)
System: human HCT116-VR colon cancer cells, selected for vorinostat resistance
Reagent: siRNA pool against human genes, 40 nM siRNA pool
Duration: vorinostat for 24 h, read-out about 72 h after transfection
Conditions: vorinostat at 2.5 µM final
Measurement: 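Cell viability by CellTiter-Fluor and caspase 3/7 activity by luminescence, each scaled to mock wells per plate, duplicates averaged, then robust z-scored over all plates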
Scale: viability robust z-score: higher = more viable cells than screen typical; caspase robust z-score: higher = more caspase 3/7 activity than screen typical
Hit rule: 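Hits are knock-downs in viability class RV1/RV2 or caspase class CA1/CA2, excluding ones that killed cells in the no-drug cell-count arm; hits then retested with single siRNAs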

no.	gene	viability hit class	caspase hit class	viability robust z-score	caspase robust z-score
1	IRAK1	no change	no change	-0.96	1.58
2	NAGS	no change	no change	1.21	0.09
3	FAM89A	no change	no change	-2.08	0.76
4	TBATA	no change	no change	-1.21	1.96
5	ABCD2	no change	no change	0.99	-0.77
6	EEIG1	no change	no change	1.13	-0.36
7	SAMD12	no change	no change	1.64	-0.66
8	MRPL42	no change	no change	-1.68	-0.55
9	MTDH	no change	no change	-0.74	-0.41
10	NR1D2	no change	no change	0.1	1.99
11	SAP30L	no change	no change	-2.24	1.23
12	POLE3	no change	no change	-2.38	0.48
13	CDK8	no change	no change	-0.2	-1.09
14	ATP6V1G1	no change	no change	-0.48	-0.41
15	SUSD1	no change	no change	0.26	-0.67
16	MRPS17	no change	no change	-0.98	2.12
17	ZNF232	no change	no change	-0.08	0.52
18	DYRK1B	no change	no change	-0.74	1.43
19	TMEM220	no change	no change	-1.02	3.68
20	TSR2	no change	no change	-1.62	0.1
21	CELF4	no change	no change	0.81	3.37
22	PLEKHF1	no change	no change	1.42	1.03
23	SCRT1	no change	no change	-1.99	3.14

Entries listed so far whose target name starts with N or n (2):
gene	viability hit class	caspase hit class	viability robust z-score	caspase robust z-score
NAGS	no change	no change	1.21	0.09
NR1D2	no change	no change	0.1	1.99
